PubChem BioAssay AID504793 – Drosophila RNAi Screening Center | 2011
Purpose: 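Genes required for cells to halt at G2/M after double-strand DNA breaks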 (primary screen). Cells: Drosophila S2R+ cells. Knock-down reagent: long dsRNA against Drosophila genes, about 0.25 µg dsRNA per well. Duration: 4 days of dsRNA, then 4 hours of drug before read-out. Challenge: doxorubicin 0.5 µM for 4 hours to cause double-strand breaks, in cells also given a low, harmless dose of dsRNA against nbs to sensitise the assay. Measured: 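Mitotic index as the number of phospho-histone H3-positive cells in each well following doxorubicin, given as raw counts without normalisation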. Scale: mitotic cells: higher = more cells in mitosis, weaker G2 arrest. Call rule: 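a call needs confirmation in secondary tests, with other dsRNAs and a check of mitotic timing without damage, not just a high primary count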. Meaning of the calls: active = confirmed in follow-up tests; inactive = not confirmed.
The deposit covers about 23,000 reagents; shown is an unselected part of those that have a named target and a result. In the full data, 62 (0.27%) are marked active. 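Calls come from follow-up tests whose scores are not deposited, so confirmed genes may have low counts here; counts are not normalised per plate.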 Raw values vary from plate to plate and are shown uncorrected.

{"Target gene":"CG14654 (retired record)","DRSC id":"DRSC12240","mitotic cells, replicate 1":10,"Call":"inactive"}
{"Target gene":"CG14654 (retired record)","DRSC id":"DRSC26836","mitotic cells, replicate 1":7,"Call":"inactive"}
{"Target gene":"CG16762","DRSC id":"DRSC08493","mitotic cells, replicate 1":5,"Call":"inactive"}
{"Target gene":"CG31522","DRSC id":"DRSC12005","mitotic cells, replicate 1":10,"Call":"inactive"}
{"Target gene":"CG31522","DRSC id":"DRSC29792","mitotic cells, replicate 1":9,"Call":"inactive"}
{"Target gene":"CG34431","DRSC id":"DRSC29884","mitotic cells, replicate 1":6,"Call":"inactive"}
{"Target gene":"Obp50e (Odorant-binding protein 50e)","DRSC id":"DRSC06434","mitotic cells, replicate 1":5,"Call":"inactive"}
{"Target gene":"Mrtf (Myocardin-related transcription factor)","DRSC id":"DRSC08410","mitotic cells, replicate 1":4,"Call":"inactive"}
{"Target gene":"Mrtf (Myocardin-related transcription factor)","DRSC id":"DRSC23194","mitotic cells, replicate 1":21,"Call":"inactive"}
{"Target gene":"Mrtf (Myocardin-related transcription factor)","DRSC id":"DRSC30105","mitotic cells, replicate 1":10,"Call":"inactive"}
{"Target gene":"CG10029","DRSC id":"DRSC12498","mitotic cells, replicate 1":3,"Call":"inactive"}
{"Target gene":"MED14 (Mediator complex subunit 14)","DRSC id":"DRSC08235","mitotic cells, replicate 1":4,"Call":"inactive"}
{"Target gene":"MED14 (Mediator complex subunit 14)","DRSC id":"DRSC23587","mitotic cells, replicate 1":23,"Call":"inactive"}
{"Target gene":"CG9799","DRSC id":"DRSC16567","mitotic cells, replicate 1":8,"Call":"inactive"}
{"Target gene":"Six4","DRSC id":"DRSC11881","mitotic cells, replicate 1":1,"Call":"inactive"}
{"Target gene":"Six4","DRSC id":"DRSC29889","mitotic cells, replicate 1":5,"Call":"inactive"}
{"Target gene":"IP3K1 (Inositol 1,4,5-triphosphate kinase 1)","DRSC id":"DRSC02734","mitotic cells, replicate 1":7,"Call":"inactive"}
{"Target gene":"hui (hase und igel)","DRSC id":"DRSC05977","mitotic cells, replicate 1":2,"Call":"inactive"}
{"Target gene":"hui (hase und igel)","DRSC id":"DRSC28947","mitotic cells, replicate 1":9,"Call":"inactive"}
{"Target gene":"CG17919","DRSC id":"DRSC12571","mitotic cells, replicate 1":4,"Call":"inactive"}
{"Target gene":"CG17919","DRSC id":"DRSC27860","mitotic cells, replicate 1":6,"Call":"inactive"}
{"Target gene":"CG11035","DRSC id":"DRSC14287","mitotic cells, replicate 1":4,"Call":"inactive"}
{"Target gene":"CG15725","DRSC id":"DRSC19691","mitotic cells, replicate 1":4,"Call":"inactive"}
{"Target gene":"Smox (Smad on X)","DRSC id":"DRSC23488","mitotic cells, replicate 1":4,"Call":"inactive"}
{"Target gene":"CG14722","DRSC id":"DRSC14944","mitotic cells, replicate 1":4,"Call":"inactive"}
{"Target gene":"CG14722","DRSC id":"DRSC24593","mitotic cells, replicate 1":6,"Call":"inactive"}
{"Target gene":"CG6138","DRSC id":"DRSC02933","mitotic cells, replicate 1":4,"Call":"inactive"}
{"Target gene":"CG1344","DRSC id":"DRSC04837","mitotic cells, replicate 1":2,"Call":"inactive"}
{"Target gene":"Nsun2 (NOP2-Sun domain family, member 2)","DRSC id":"DRSC18662","mitotic cells, replicate 1":17,"Call":"inactive"}
{"Target gene":"Nsun2 (NOP2-Sun domain family, member 2)","DRSC id":"DRSC28657","mitotic cells, replicate 1":7,"Call":"inactive"}
{"Target gene":"CG14174","DRSC id":"DRSC10175","mitotic cells, replicate 1":5,"Call":"inactive"}
{"Target gene":"Jhbp7 (Juvenile hormone binding protein 7)","DRSC id":"DRSC14408","mitotic cells, replicate 1":4,"Call":"inactive"}
{"Target gene":"Jhbp7 (Juvenile hormone binding protein 7)","DRSC id":"DRSC25905","mitotic cells, replicate 1":9,"Call":"inactive"}
{"Target gene":"CG7829","DRSC id":"DRSC16322","mitotic cells, replicate 1":3,"Call":"inactive"}
{"Target gene":"CG7829","DRSC id":"DRSC28615","mitotic cells, replicate 1":7,"Call":"inactive"}
